Residue numbers refer to the chain shown, from its start. A weaker result is weaker than the reference pair of the same experiment. Protein sequences can lack the tags named with them.
Assays:
[1] = target: T1, KlRad5 R1000E (Kluyveromyces lactis) (UniProt Q6CJM4); assay: fluorescence polarization; details: 50 mM NaCl; FP: 20 mM Tris pH 7.5, 50 mM (dsDNA, KlHIRAN) or 70 mM (ssDNA) NaCl, 2 mM MgCl2, 1 nM DNA, room temp; recombinant protein; residues 163-1114; label: 5'-FAM
T1 sequence (looked up): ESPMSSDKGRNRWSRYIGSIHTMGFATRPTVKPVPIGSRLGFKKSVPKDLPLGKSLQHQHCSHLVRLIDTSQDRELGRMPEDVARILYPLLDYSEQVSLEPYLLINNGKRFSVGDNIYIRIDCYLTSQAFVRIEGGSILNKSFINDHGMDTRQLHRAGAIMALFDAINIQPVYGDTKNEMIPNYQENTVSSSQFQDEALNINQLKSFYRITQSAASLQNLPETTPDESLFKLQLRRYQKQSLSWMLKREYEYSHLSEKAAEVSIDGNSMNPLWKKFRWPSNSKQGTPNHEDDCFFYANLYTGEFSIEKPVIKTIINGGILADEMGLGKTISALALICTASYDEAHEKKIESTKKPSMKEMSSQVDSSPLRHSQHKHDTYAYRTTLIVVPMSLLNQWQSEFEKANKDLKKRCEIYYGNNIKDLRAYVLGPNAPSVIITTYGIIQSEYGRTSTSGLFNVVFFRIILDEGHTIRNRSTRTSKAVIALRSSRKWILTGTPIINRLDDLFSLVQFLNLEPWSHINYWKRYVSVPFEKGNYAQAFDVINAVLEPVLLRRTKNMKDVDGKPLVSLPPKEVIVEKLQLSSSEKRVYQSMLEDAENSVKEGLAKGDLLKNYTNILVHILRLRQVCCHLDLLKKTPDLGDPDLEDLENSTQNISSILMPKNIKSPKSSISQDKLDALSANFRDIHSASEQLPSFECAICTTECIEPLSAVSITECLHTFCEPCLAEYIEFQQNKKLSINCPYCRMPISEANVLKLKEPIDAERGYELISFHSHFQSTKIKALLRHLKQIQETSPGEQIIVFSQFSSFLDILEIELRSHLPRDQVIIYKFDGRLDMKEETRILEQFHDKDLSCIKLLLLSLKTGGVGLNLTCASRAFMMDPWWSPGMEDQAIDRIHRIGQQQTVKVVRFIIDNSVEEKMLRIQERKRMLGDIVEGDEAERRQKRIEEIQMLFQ

[2] = target: T2, KlRad5 R610E (Kluyveromyces lactis) (UniProt Q6CJM4); assay: fluorescence polarization; details: 50 mM NaCl; FP: 20 mM Tris pH 7.5, 50 mM (dsDNA, KlHIRAN) or 70 mM (ssDNA) NaCl, 2 mM MgCl2, 1 nM DNA, room temp; recombinant protein; residues 163-1114; label: 5'-FAM
T2 sequence (looked up): T1 sequence (looked up) with R448E, E838R

“ACCAGTGCCAGTGAT (double strand) [D2a/D2b dsDNA]”: binds more weakly [1]; binds more weakly [2].

Source: PMC7804152, “Structural basis for the multi-activity factor Rad5 in replication stress tolerance”
